In US8507514B2, “Hydrazide compound and use of the same in pest control” (Sumitomo Chemical Company, Limited, priority 2009, dated 2013):
Some of these results come from one statement about several compounds together.

Experiments:
Type in all cases: in vivo
Culex pipiens pallens = test: Test Example 2: Culex pipiens pallens larvae in treated water; settings: active ingredient concentration 3.5 ppm in water; 20 last instar larvae; after 8 days
Adoxophyes orana = test: Test Example 5: Adoxophyes orana larvae on treated artificial diet; settings: 500 ppm test solution, 1 mL on artificial diet Silkmate 2S; 30 first instar larvae; after 7 days
Plutella xylostella = test: Test Example 3: Plutella xylostella larvae on sprayed cabbage; settings: 500 ppm test solution, 20 ml sprayed on cabbage; 5 second instar larvae; 25° C., 5 days

Structure (SMILES) | pest death rate (Culex pipiens pallens) | pest death rate (Adoxophyes orana) | pest death rate (Plutella xylostella)
COc1ccc(NC(=O)NNc2cc(C3=NOC(c4cc(Cl)cc(Cl)c4)(C(F)(F)F)C3)ccc2Cl)cc1 (stereo not shown) [(59)] | ≥ 90% | – | –
COCC(=O)NNc1cc(C2=NOC(c3cc(Cl)cc(Cl)c3)(C(F)(F)F)C2)ccc1Cl (stereo not shown) [(38)] | ≥ 90% | ≥ 90% | ≥ 80%
O=C(CCCBr)NNc1cc(C2=NOC(c3cc(Cl)cc(Cl)c3)(C(F)(F)F)C2)ccc1Cl (stereo not shown) [(34)] | ≥ 90% | ≥ 90% | ≥ 80%
O=C(NNc1cc(C2=NOC(c3cc(Cl)cc(Cl)c3)(C(F)(F)F)C2)ccc1Cl)NC1CCCCC1 (stereo not shown) [(61)] | – | ≥ 90% | ≥ 80%
COCC(=O)NN(C(=O)c1ccccc1)c1cc(C2=NOC(c3cc(Cl)cc(Cl)c3)(C(F)(F)F)C2)ccc1Cl (stereo not shown) [(57)] | – | – | ≥ 80%
CCNC(=O)NNc1cc(C2=NOC(c3cc(Cl)cc(Cl)c3)(C(F)(F)F)C2)ccc1Cl (stereo not shown) [(25)] | – | – | ≥ 80%
CC(C)(CCl)C(=O)NNc1cc(C2=NOC(c3cc(Cl)cc(Cl)c3)(C(F)(F)F)C2)ccc1Cl (stereo not shown) [(40)] | – | ≥ 90% | ≥ 80%
O=C(CCCC(F)(F)F)NNc1cc(C2=NOC(c3cc(Cl)cc(Cl)c3)(C(F)(F)F)C2)ccc1Cl (stereo not shown) [(36)] | ≥ 90% | ≥ 90% | ≥ 80%
